Test results: patent publication US11952348B1, “4,5-bis(4-bromophenyl)-1-hexyl-2-(4-hydroxy-3-dimethoxyphenyl)-1H-imidazole as an antimicrobial compound” (KING FAISAL UNIVERSITY, priority 2023, dated 2024)
For at least one compound, name, drawing or mass did not settle the structure.

Experiments:
Assay type in all cases: cell-based
Staphylococcus aureus = assay: Antimicrobial screening by agar dilution, Staphylococcus aureus; conditions: St. Aereus
Method: (§1) The antimicrobial properties of the 4,5-bis(4-bromophenyl)-1-hexyl-2-(4-hydroxy-3-dimethoxyphenyl)-1H-imidazole was studied by the method of agar dilution. Test solutions of each compound was prepared in concentration of 1% using dimethylformamide as a solvent then they were diluted in physiological solution to obtain the final experimental dilutions 1: 100, 1:200, 1:400, 1:800. The effect of these substances were compared with furacillin in a controlled study. The testing microbes used were gram positive bacteria Staphylococcus aureus, gram negative bacteria Pseudomonas aeruginosa and Escherichia coli and Candida albicans fungi were taken. The experiments used for this survey were meat-pentonlu agar (EPA) for cultivation of bacteria and Saburo environment for fungi. Each experiment used 1 ml of test solution on each plate 500 min. Add 2 drops of emulsified with microbes feel. All experimental samples were taken from the agar after 10, 20, 40, 60 minutes in the environment on the basis of Patrk planted. Bacteria were cultivated at a temperature of 37° C. for 1 day and the mushroom was kept in a thermostat for […] at a temperature of 28° C. Then results were checked.

Escherichia coli = assay: Antimicrobial screening by agar dilution, Escherichia coli; conditions: E. Coli
Method: as §1

Pseudomonas aeruginosa = assay: Antimicrobial screening by agar dilution, Pseudomonas aeruginosa; conditions: Ps. Aeroqonaza
Method: as §1

Candida albicans = assay: Antimicrobial (antifungal) screening by agar dilution, Candida albicans
Method: as §1

[1] = dilution rate 1:100, exposure time 10 min
[2] = dilution rate 1:100, exposure time 20 min
[3] = dilution rate 1:100, exposure time 40 min
[4] = dilution rate 1:100, exposure time 60 min
[5] = dilution rate 1:200, exposure time 10 min
[6] = dilution rate 1:200, exposure time 20 min
[7] = dilution rate 1:200, exposure time 40 min
[8] = dilution rate 1:200, exposure time 60 min
[9] = dilution rate 1:400, exposure time 10 min
[10] = dilution rate 1:400, exposure time 20 min
[11] = dilution rate 1:400, exposure time 40 min
[12] = dilution rate 1:400, exposure time 60 min
[13] = dilution rate 1:800, exposure time 10 min
[14] = dilution rate 1:800, exposure time 20 min
[15] = dilution rate 1:800, exposure time 40 min
[16] = dilution rate 1:800, exposure time 60 min

NC(=O)N/N=C/c1ccc([N+](=O)[O-])o1 [Furacilin]
antimicrobial activity (Staphylococcus aureus; [1]): −
antimicrobial activity (Staphylococcus aureus; [2]): −
antimicrobial activity (Staphylococcus aureus; [3]): −
antimicrobial activity (Staphylococcus aureus; [4]): −
antimicrobial activity (Staphylococcus aureus; [5]): +
antimicrobial activity (Staphylococcus aureus; [6]): +
antimicrobial activity (Staphylococcus aureus; [7]): +
antimicrobial activity (Staphylococcus aureus; [8]): +
antimicrobial activity (Staphylococcus aureus; [9]): +
antimicrobial activity (Staphylococcus aureus; [10]): +
antimicrobial activity (Staphylococcus aureus; [11]): +
antimicrobial activity (Staphylococcus aureus; [12]): +
antimicrobial activity (Staphylococcus aureus; [13]): +
antimicrobial activity (Staphylococcus aureus; [14]): +
antimicrobial activity (Staphylococcus aureus; [15]): +
antimicrobial activity (Staphylococcus aureus; [16]): +
antimicrobial activity (Escherichia coli; [1]): −
antimicrobial activity (Escherichia coli; [2]): −
antimicrobial activity (Escherichia coli; [3]): −
antimicrobial activity (Escherichia coli; [4]): −
antimicrobial activity (Escherichia coli; [5]): +
antimicrobial activity (Escherichia coli; [6]): +
antimicrobial activity (Escherichia coli; [7]): +
antimicrobial activity (Escherichia coli; [8]): +
antimicrobial activity (Escherichia coli; [9]): +
antimicrobial activity (Escherichia coli; [10]): +
antimicrobial activity (Escherichia coli; [11]): +
antimicrobial activity (Escherichia coli; [12]): +
antimicrobial activity (Escherichia coli; [13]): +
antimicrobial activity (Escherichia coli; [14]): +
antimicrobial activity (Escherichia coli; [15]): +
antimicrobial activity (Escherichia coli; [16]): +
antimicrobial activity (Pseudomonas aeruginosa; [1]): +
antimicrobial activity (Pseudomonas aeruginosa; [2]): +
antimicrobial activity (Pseudomonas aeruginosa; [3]): +
antimicrobial activity (Pseudomonas aeruginosa; [4]): +
antimicrobial activity (Pseudomonas aeruginosa; [5]): +
antimicrobial activity (Pseudomonas aeruginosa; [6]): +
antimicrobial activity (Pseudomonas aeruginosa; [7]): +
antimicrobial activity (Pseudomonas aeruginosa; [8]): +
antimicrobial activity (Pseudomonas aeruginosa; [9]): +
antimicrobial activity (Pseudomonas aeruginosa; [10]): +
antimicrobial activity (Pseudomonas aeruginosa; [11]): +
antimicrobial activity (Pseudomonas aeruginosa; [12]): +
antimicrobial activity (Pseudomonas aeruginosa; [13]): +
antimicrobial activity (Pseudomonas aeruginosa; [14]): +
antimicrobial activity (Pseudomonas aeruginosa; [15]): +
antimicrobial activity (Pseudomonas aeruginosa; [16]): +
antimicrobial activity (Candida albicans; [1]): −
antimicrobial activity (Candida albicans; [2]): −
antimicrobial activity (Candida albicans; [3]): +
antimicrobial activity (Candida albicans; [4]): +
antimicrobial activity (Candida albicans; [5]): +
antimicrobial activity (Candida albicans; [6]): +
antimicrobial activity (Candida albicans; [7]): +
antimicrobial activity (Candida albicans; [8]): +
antimicrobial activity (Candida albicans; [9]): +
antimicrobial activity (Candida albicans; [10]): +
antimicrobial activity (Candida albicans; [11]): +
antimicrobial activity (Candida albicans; [12]): +
antimicrobial activity (Candida albicans; [13]): +
antimicrobial activity (Candida albicans; [14]): +
antimicrobial activity (Candida albicans; [15]): +
antimicrobial activity (Candida albicans; [16]): +
